This note sets out measurements from patent publication US20260035475A1.

Assay [1] addresses hTfR1 with an N-terminal DYKDDDDK tag (Example 15) (human) (UniProt P02786). Kind of assay: SPR (Biacore 8K), single-cycle kinetics: hTfR1 captured by its DYKDDDDK tag on an anti-tag antibody, scFv in five 3-fold steps up to 700 or 400 nM. (In SPR one partner is held on a chip, and binding of the other changes the refractive index at the surface.)
Assay [2] shares this target. Nature of the assay: SPR Biacore 8K, hTfR1 captured via N-terminal DYKDDDDK tag, scFv analyte (FIG. 26).
The target of assay [3] is cynomolgus TfR1 (cTfR1), recombinant, construct not stated (cynomolgus). Nature of the assay: BLI: cTfR1 captured on biotinylated human holo-transferrin on streptavidin sensors, 15 nM Fab in solution. (Biolayer interferometry detects binding as a change in optical thickness at a sensor tip.)
For assay [4] the target is unchanged. Nature of the assay: BLI, 15 nM Fab on TfR1 captured by biotinylated holo-transferrin.
Assay [5] shares this target. Nature of the assay: BLI, IgG captured from hybridoma supernatant, 250 nM cTfR1 in solution.
The target in assay [6] is chimeric TfR1 consisting of human apical domain grafted on mouse TfR1 ectodomain (SEQ ID NO:76) (human/mouse chimera). Kind of assay: ELISA, coated His-tagged antigen, mouse IgG dilution series.
Assay [7] addresses cynomolgus TfR1 (cTfR1), recombinant, construct not stated (cynomolgus). Nature of the assay: ELISA, hybridoma supernatant. (ELISA stands for enzyme-linked immunosorbent assay.)
Assay [8] addresses mouse TfR1 (mTfR1), recombinant, construct not stated (mouse) (UniProt Q62351). Nature of the assay: BLI, IgG captured from hybridoma supernatant, 500 nM mTfR1 in solution.
Assay [9] deals with chimeric TfR1 consisting of human apical domain grafted on mouse TfR1 ectodomain (SEQ ID NO:76) (human/mouse chimera). Nature of the assay: condition: about 650 ng/ml (last point, between 100 and 1000 on the log axis); indirect ELISA on coated h/m apical domain chimera; x axis printed 'TfR (ng/ml)' [C].
The target of assay [10] is cynomolgus TfR1 (cTfR1), recombinant, construct not stated (cynomolgus). Nature of the assay: BLI (Octet): IgG captured from crude hybridoma supernatant on anti-mouse capture sensors, 250 nM cTfR1 in solution.
The target of assay [11] is mouse TfR1 (mTfR1), recombinant, construct not stated (mouse) (UniProt Q62351). Kind of assay: BLI, IgG captured from hybridoma supernatant, TfR1 in solution.
In assay [12] the target is cynomolgus TfR1 (cTfR1), recombinant, construct not stated (cynomolgus). The description is as above.
The target of assay [13] is mouse TfR1 (mTfR1), recombinant, construct not stated (mouse) (UniProt Q62351). Kind of assay: BLI (Octet): IgG captured from crude hybridoma supernatant on anti-mouse capture sensors, 500 nM mTfR1 in solution.
Assay [14] has as its target human transferrin receptor 1 (hTfR1), recombinant, construct not stated (human) (UniProt P02786). Nature of the assay: BLI, 15 nM Fab on TfR1 captured by biotinylated holo-transferrin.
For assay [15] the target is unchanged. Nature of the assay: BLI: hTfR1 captured on biotinylated human holo-transferrin on streptavidin sensors, 15 nM Fab in solution.
Assay [16] has as its target cynomolgus TfR1 (cTfR1), recombinant, construct not stated (cynomolgus). Nature of the assay: indirect ELISA on coated cTfR1 (coat not described in the text), Fab 1:3 dilutions [upper right].

No constants are given. Whether binding was seen depends on the method and setting. Some entries that bind do so weakly or less than the wild type.

B1: h26D3-HC6, VL-first scFv (scFv)
scFv: DIQMTQSPSSVSASVGDRVTITCKSSQSLLYSTNQKNYLAWYQQKPGKAPKLLIYWASTRESGVPSRFSGSGSGTDFTLTISSLQPEDFATYYCQQYFIYPRTFGQGTKVEIKGGGGSGGGGSGGGGSEVQLVQSGAEVKKPGSSVKVSCKASGYIFTDYNMDWVRQAPGQGLEWIGDINPDADTTSYNEKFKGRATLTVDKSTSTAYMELSSLRSEDTAVYYCARGGYSGSSYYHPMDYWGQGTLVTVSS
Take B1: the binding entry in assay [1] and in assay [2] was “binds” in each case.

B2: 26D3-Fab (murine) (Fab, V domains shown)
VH: EVQLQQFGVELVKPGASVKISCKASGYIFTDYNMDWVKQSHGKSLEWIGDINPDYDTTSYNEKFKGKATLTVDKSSSTAYMELRSLTSEDTAVYYCARGGYSGSSYYHPMDYWGQGTSVTVSS
VL: DIVMSQSPSSLAVSVGEKITMSCKSSQSLLYSTNQKNYLAWYQQKPGQSPELLIYWASTRESGVPDRFTGSGSGTDFTLTISNVRAEDLAVYYCQQYFIYPRTFGGGTKLEIK
B2: the binding entry in assay [3] and in assay [4] was “binds” each time.

B3: 26D3 (mouse monoclonal antibody) (antibody, V domains shown)
VH: EVQLQQFGVELVKPGASVKISCKASGYIFTDYNMDWVKQSHGKSLEWIGDINPDYDTTSYNEKFKGKATLTVDKSSSTAYMELRSLTSEDTAVYYCARGGYSGSSYYHPMDYWGQGTSVTVSS
VL: DIVMSQSPSSLAVSVGEKITMSCKSSQSLLYSTNQKNYLAWYQQKPGQSPELLIYWASTRESGVPDRFTGSGSGTDFTLTISNVRAEDLAVYYCQQYFIYPRTFGGGTKLEIK
Take B3: the binding result is recorded as “binds” in assay [5]; “no binding” in assay [6]; “binds” in assay [7]; “binds” in assay [8]; “no binding” in [9]; “binds” in [10]. Moreover, the binding result in assay [11], in assay [12] and in assay [13] was “binds” in each case.

B4: h26D3-HC6_DS, VL-first scFv (scFv)
scFv: DIQMTQSPSSVSASVGDRVTITCKSSQSLLYSTNQKNYLAWYQQKPGKAPKLLIYWASTRESGVPSRFSGSGSGTDFTLTISSLQPEDFATYYCQQYFIYPRTFGCGTKVEIKGGGGSGGGGSGGGGSGGGGSEVQLVQSGAEVKKPGSSVKVSCKASGYIFTDYNMDWVRQAPGQCLEWIGDINPDADTTSYNEKFKGRATLTVDKSTSTAYMELSSLRSEDTAVYYCARGGYSGSSYYHPMDYWGQGTLVTVSS
Regarding B4, the binding entry in [1] and in assay [2] was “binds” in each case.

B5: h26D3-LC1_DS, VL-first scFv (scFv)
scFv: DIQMTQSPSSVSASVGDRVTITCKSSQSLLASTNQKNYLAWYQQKPGKAPKLLIYWASTRESGVPSRFSGSGSGTDFTLTISSLQPEDFATYYCQQYFIYPRTFGCGTKVEIKGGGGSGGGGSGGGGSGGGGSEVQLVQSGAEVKKPGSSVKVSCKASGYIFTDYNMDWVRQAPGQCLEWIGDINPDYDTTSYNEKFKGRATLTVDKSTSTAYMELSSLRSEDTAVYYCARGGYSGSSYYHPMDYWGQGTLVTVSS
For B5, the binding entry in assay [1] and in assay [2] was “binds” each time.

B6: 24B4-Fab (Fab, V domains shown)
VH: EVQLQQFGAELVKPGTSVKISCKASGYTFTDYNMDWVKQGHGKGLEWIGDINPNYDTTSYSQKFKGKATLTVDKSSSTAYMELRSLTSEDTAVYYCARSEAGNYYWYFDVWGAGTTVTVSS
VL: DIVMSQSPSSLAVSVGEKVTMSCKSSQSLLYSSNRKNYLAWYRQKPGQSPKLLIYWASTRESGVPDRFTGSGSGTDFTLTISSVKAEDLAVYSCQQYYNYPYTFGGGTKLEIK
Turning to B6, the binding result in assay [3], in assay [14], in [4] and in [15] was “binds” in each case.

B7: h26D3 variant LC1 Fab (VL Y31A) (Fab, V domains shown)
VH: EVQLVQSGAEVKKPGSSVKVSCKASGYIFTDYNMDWVRQAPGQGLEWIGDINPDYDTTSYNEKFKGRATLTVDKSTSTAYMELSSLRSEDTAVYYCARGGYSGSSYYHPMDYWGQGTLVTVSS
VL: DIQMTQSPSSVSASVGDRVTITCKSSQSLLASTNQKNYLAWYQQKPGKAPKLLIYWASTRESGVPSRFSGSGSGTDFTLTISSLQPEDFATYYCQQYFIYPRTFGQGTKVEIK
As to B7, the binding result in assay [16] is “binds”.

B8: h26D3-HC6/LC5 (Fab, V domains shown)
VH: EVQLVQSGAEVKKPGSSVKVSCKASGYIFTDYNMDWVRQAPGQGLEWIGDINPDADTTSYNEKFKGRATLTVDKSTSTAYMELSSLRSEDTAVYYCARGGYSGSSYYHPMDYWGQGTLVTVSS
VL: DIQMTQSPSSVSASVGDRVTITCKSSQSLLYSTNQKNYLAWYQQKPGKAPKLLIYWASTRESGVPSRFSGSGSGTDFTLTISSLQPEDFATYYCQQAFIYPRTFGQGTKVEIK
For B8, the binding entry in [16] was “binds”.

B9: h26D3 variant LC5 Fab (VL Y97A) (Fab, V domains shown)
VH: EVQLVQSGAEVKKPGSSVKVSCKASGYIFTDYNMDWVRQAPGQGLEWIGDINPDYDTTSYNEKFKGRATLTVDKSTSTAYMELSSLRSEDTAVYYCARGGYSGSSYYHPMDYWGQGTLVTVSS
VL: DIQMTQSPSSVSASVGDRVTITCKSSQSLLYSTNQKNYLAWYQQKPGKAPKLLIYWASTRESGVPSRFSGSGSGTDFTLTISSLQPEDFATYYCQQAFIYPRTFGQGTKVEIK
Take B9: the binding result in assay [16] is “binds”.

B10: h26D3 variant HC3 Fab (VH D35A) (Fab, V domains shown)
VH: EVQLVQSGAEVKKPGSSVKVSCKASGYIFTDYNMAWVRQAPGQGLEWIGDINPDYDTTSYNEKFKGRATLTVDKSTSTAYMELSSLRSEDTAVYYCARGGYSGSSYYHPMDYWGQGTLVTVSS
VL: DIQMTQSPSSVSASVGDRVTITCKSSQSLLYSTNQKNYLAWYQQKPGKAPKLLIYWASTRESGVPSRFSGSGSGTDFTLTISSLQPEDFATYYCQQYFIYPRTFGQGTKVEIK
As for B10, the binding entry in assay [16] is given as “binds”.

B11: h26D3 variant HC6 Fab (VH Y55A) (Fab, V domains shown)
VH: EVQLVQSGAEVKKPGSSVKVSCKASGYIFTDYNMDWVRQAPGQGLEWIGDINPDADTTSYNEKFKGRATLTVDKSTSTAYMELSSLRSEDTAVYYCARGGYSGSSYYHPMDYWGQGTLVTVSS
VL: DIQMTQSPSSVSASVGDRVTITCKSSQSLLYSTNQKNYLAWYQQKPGKAPKLLIYWASTRESGVPSRFSGSGSGTDFTLTISSLQPEDFATYYCQQYFIYPRTFGQGTKVEIK
In the case of B11, the binding result in assay [16] is “binds”.

B12: h26D3-HC6 scFv (scFv)
scFv: EVQLVQSGAEVKKPGSSVKVSCKASGYIFTDYNMDWVRQAPGQGLEWIGDINPDADTTSYNEKFKGRATLTVDKSTSTAYMELSSLRSEDTAVYYCARGGYSGSSYYHPMDYWGQGTLVTVSSGGGGSGGGGSGGGGSDIQMTQSPSSVSASVGDRVTITCKSSQSLLYSTNQKNYLAWYQQKPGKAPKLLIYWASTRESGVPSRFSGSGSGTDFTLTISSLQPEDFATYYCQQYFIYPRTFGQGTKVEIK
As to B12, the binding result in assay [1] and in assay [2] was “binds” throughout.

B13: h26D3-LC1 scFv (scFv)
scFv: EVQLVQSGAEVKKPGSSVKVSCKASGYIFTDYNMDWVRQAPGQGLEWIGDINPDYDTTSYNEKFKGRATLTVDKSTSTAYMELSSLRSEDTAVYYCARGGYSGSSYYHPMDYWGQGTLVTVSSGGGGSGGGGSGGGGSDIQMTQSPSSVSASVGDRVTITCKSSQSLLASTNQKNYLAWYQQKPGKAPKLLIYWASTRESGVPSRFSGSGSGTDFTLTISSLQPEDFATYYCQQYFIYPRTFGQGTKVEIK
Take B13: the binding entry in assay [1] and in assay [2] was “binds” in each case.

B14: h26D3-HC6_DS scFv (scFv)
scFv: EVQLVQSGAEVKKPGSSVKVSCKASGYIFTDYNMDWVRQAPGQCLEWIGDINPDADTTSYNEKFKGRATLTVDKSTSTAYMELSSLRSEDTAVYYCARGGYSGSSYYHPMDYWGQGTLVTVSSGGGGSGGGGSGGGGSDIQMTQSPSSVSASVGDRVTITCKSSQSLLYSTNQKNYLAWYQQKPGKAPKLLIYWASTRESGVPSRFSGSGSGTDFTLTISSLQPEDFATYYCQQYFIYPRTFGCGTKVEIK
With B14, the binding entry in assay [1] and in [2] was “binds” throughout.
